Data from article PMC4545789.
Results are given in words; binding and its absence hold for the method and conditions named. In cells and extracts the contact can be indirect. Some binding calls cover weakened binding; strength is not graded here.

Protein sequences, listed by entry. Tags and fused reporters are not part of them. Residues count along the entry.
UniProt P35869, residues 11-848: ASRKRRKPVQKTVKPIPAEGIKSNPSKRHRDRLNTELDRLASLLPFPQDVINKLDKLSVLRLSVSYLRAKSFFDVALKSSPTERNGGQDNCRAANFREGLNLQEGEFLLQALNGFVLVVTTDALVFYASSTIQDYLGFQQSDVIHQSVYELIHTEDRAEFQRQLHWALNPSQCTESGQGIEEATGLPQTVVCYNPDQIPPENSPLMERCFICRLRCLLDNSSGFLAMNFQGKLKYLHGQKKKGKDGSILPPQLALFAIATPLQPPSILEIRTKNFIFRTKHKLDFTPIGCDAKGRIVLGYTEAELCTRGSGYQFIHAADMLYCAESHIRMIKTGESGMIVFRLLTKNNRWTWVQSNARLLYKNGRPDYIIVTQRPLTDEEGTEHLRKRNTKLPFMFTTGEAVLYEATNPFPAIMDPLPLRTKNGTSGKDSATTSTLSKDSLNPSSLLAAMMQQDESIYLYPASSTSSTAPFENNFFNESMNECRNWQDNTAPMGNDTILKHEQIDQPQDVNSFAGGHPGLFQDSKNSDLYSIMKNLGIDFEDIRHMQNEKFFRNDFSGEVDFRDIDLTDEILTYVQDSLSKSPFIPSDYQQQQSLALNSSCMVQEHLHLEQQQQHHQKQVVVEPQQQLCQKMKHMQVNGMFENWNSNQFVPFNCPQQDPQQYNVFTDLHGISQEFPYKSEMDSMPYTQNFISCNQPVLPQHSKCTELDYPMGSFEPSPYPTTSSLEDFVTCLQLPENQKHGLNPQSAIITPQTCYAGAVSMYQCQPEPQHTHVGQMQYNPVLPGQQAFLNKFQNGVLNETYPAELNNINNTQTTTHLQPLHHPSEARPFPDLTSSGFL
UniProt Q13191: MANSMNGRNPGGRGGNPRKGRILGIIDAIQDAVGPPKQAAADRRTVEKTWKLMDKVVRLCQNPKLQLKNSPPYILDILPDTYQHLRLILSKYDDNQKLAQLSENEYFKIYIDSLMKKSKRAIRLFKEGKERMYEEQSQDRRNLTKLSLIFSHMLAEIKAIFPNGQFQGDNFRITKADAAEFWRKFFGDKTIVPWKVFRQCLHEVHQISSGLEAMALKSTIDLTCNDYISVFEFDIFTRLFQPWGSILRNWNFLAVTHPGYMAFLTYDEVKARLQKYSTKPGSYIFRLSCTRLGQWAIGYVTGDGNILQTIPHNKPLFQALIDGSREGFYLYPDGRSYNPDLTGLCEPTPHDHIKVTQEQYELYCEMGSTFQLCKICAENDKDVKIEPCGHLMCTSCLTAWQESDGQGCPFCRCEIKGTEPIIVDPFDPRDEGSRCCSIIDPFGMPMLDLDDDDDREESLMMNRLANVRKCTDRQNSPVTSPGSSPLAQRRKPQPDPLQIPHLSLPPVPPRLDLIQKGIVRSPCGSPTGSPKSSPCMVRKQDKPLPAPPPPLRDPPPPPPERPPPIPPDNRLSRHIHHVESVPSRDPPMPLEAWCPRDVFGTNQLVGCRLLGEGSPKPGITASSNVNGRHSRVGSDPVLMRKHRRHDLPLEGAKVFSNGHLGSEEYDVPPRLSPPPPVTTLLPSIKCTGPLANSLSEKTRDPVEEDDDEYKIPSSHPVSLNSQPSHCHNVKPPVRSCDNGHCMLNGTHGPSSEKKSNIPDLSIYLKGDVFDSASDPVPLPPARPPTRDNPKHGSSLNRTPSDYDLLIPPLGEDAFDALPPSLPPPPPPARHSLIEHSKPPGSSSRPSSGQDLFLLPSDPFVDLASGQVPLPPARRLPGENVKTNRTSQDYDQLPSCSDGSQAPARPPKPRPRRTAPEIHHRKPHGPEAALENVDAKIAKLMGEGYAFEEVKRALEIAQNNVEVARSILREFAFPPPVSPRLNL

Target: aryl hydrocarbon receptor (AhR) (human (endogenous in HL-60)) (UniProt P35869)
Assay: FRET or BRET; flow cytometry FRET in HL-60 cells fixed with 2% paraformaldehyde and permeabilized with ice cold methanol; endogenous proteins labelled with mouse and rabbit primary antibodies and Alexa 488 (donor) and Alexa 594 (acceptor) secondary antibodies; cells untreated or treated with 1 uM RA, 100 nM FICZ, 1 uM alpha-NF, 1 uM beta-NF as indicated; isotype controls included

- binding: binds
Substance: Cbl-b (from UniProt Q13191 1-982)
